According to the supplement of paper PMC10849652:
The other results are listed elsewhere or left out.

Sequences of proteins named here, by UniProt entry; tags and fusion partners are left off. A change or cut given only in a name is not applied to a line headed by its entry.
UniProt Q8WVT3: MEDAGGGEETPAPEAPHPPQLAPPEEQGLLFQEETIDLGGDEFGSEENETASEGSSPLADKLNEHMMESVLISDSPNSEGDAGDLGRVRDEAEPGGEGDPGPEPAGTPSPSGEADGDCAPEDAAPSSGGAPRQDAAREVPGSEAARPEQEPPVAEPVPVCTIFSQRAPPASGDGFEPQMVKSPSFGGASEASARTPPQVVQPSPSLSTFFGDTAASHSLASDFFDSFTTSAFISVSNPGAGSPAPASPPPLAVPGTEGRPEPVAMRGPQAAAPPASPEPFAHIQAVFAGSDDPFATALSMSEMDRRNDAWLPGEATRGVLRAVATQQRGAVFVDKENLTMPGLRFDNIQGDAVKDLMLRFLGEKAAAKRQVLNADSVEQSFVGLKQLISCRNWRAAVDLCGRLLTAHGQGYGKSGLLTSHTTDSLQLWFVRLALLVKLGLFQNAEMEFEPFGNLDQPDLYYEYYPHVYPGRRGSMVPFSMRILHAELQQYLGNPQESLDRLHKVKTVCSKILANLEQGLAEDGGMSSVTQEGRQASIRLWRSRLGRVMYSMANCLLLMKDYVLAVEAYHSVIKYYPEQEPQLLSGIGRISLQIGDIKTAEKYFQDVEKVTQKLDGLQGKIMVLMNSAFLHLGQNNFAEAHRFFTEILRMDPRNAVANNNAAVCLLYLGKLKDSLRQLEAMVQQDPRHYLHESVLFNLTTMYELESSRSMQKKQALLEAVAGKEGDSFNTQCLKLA
UniProt O94826, whole entry, looked up: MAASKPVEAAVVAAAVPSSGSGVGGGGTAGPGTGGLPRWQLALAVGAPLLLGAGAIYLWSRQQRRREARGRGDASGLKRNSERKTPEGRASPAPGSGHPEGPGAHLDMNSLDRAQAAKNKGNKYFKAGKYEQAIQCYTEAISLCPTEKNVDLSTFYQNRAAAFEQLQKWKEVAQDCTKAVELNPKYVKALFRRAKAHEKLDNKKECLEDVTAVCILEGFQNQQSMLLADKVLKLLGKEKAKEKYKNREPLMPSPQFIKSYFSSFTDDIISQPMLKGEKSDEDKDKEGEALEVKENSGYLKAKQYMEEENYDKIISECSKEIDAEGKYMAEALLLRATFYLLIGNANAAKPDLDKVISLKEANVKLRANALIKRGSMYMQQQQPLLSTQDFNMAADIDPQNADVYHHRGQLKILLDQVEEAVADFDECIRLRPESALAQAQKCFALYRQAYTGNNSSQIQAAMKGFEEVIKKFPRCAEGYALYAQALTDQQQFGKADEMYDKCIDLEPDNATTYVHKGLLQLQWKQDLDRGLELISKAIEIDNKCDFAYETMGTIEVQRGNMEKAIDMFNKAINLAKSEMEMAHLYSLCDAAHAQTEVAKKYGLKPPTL
UniProt Q15714: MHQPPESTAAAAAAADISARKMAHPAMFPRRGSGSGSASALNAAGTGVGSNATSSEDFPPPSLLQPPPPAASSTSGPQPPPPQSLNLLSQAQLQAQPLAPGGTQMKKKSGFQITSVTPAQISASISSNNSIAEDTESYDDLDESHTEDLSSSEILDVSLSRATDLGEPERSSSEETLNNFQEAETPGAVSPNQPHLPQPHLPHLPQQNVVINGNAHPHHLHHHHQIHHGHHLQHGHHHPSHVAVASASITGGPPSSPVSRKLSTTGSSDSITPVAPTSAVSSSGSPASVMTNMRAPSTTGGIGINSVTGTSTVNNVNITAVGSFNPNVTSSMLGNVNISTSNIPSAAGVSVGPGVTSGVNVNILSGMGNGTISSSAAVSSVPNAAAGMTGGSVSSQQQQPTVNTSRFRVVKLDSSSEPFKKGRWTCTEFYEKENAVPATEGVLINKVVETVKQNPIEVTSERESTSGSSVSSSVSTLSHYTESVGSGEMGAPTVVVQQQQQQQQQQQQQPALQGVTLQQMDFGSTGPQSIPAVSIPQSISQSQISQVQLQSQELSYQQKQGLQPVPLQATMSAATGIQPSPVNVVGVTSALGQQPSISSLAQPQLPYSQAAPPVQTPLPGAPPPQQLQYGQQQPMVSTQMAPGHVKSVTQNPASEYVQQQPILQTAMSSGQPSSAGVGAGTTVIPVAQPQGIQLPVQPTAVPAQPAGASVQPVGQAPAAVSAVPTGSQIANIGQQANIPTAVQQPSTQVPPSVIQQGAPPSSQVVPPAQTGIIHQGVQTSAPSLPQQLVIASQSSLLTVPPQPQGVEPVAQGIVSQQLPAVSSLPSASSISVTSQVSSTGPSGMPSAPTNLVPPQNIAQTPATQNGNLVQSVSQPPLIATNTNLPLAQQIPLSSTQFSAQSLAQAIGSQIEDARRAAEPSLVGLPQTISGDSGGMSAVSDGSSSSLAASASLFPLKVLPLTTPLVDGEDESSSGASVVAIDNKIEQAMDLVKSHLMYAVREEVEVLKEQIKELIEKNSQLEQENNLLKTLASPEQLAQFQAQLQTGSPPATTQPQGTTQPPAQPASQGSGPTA
UniProt Q8WWH5: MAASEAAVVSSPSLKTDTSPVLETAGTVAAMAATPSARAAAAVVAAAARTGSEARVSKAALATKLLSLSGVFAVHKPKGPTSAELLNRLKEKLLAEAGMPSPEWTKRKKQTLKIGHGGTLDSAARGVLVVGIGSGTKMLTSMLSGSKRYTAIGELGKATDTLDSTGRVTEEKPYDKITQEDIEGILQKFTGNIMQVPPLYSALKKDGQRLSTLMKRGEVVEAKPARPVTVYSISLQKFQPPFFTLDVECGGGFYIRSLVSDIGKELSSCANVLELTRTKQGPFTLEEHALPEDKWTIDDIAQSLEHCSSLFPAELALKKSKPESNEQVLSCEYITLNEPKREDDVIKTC
UniProt Q96F44: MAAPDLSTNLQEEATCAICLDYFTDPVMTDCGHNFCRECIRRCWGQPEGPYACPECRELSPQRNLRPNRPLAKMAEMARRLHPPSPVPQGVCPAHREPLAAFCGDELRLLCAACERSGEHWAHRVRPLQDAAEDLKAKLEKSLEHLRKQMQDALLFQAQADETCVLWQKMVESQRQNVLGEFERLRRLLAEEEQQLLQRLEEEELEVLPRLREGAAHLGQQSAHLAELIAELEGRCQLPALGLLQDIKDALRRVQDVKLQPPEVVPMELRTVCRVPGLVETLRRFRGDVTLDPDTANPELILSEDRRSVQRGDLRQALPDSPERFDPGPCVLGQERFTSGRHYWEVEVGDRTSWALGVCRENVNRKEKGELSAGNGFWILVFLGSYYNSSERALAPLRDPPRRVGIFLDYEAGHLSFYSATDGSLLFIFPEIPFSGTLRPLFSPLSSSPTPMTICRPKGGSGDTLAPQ
UniProt Q9UPN9: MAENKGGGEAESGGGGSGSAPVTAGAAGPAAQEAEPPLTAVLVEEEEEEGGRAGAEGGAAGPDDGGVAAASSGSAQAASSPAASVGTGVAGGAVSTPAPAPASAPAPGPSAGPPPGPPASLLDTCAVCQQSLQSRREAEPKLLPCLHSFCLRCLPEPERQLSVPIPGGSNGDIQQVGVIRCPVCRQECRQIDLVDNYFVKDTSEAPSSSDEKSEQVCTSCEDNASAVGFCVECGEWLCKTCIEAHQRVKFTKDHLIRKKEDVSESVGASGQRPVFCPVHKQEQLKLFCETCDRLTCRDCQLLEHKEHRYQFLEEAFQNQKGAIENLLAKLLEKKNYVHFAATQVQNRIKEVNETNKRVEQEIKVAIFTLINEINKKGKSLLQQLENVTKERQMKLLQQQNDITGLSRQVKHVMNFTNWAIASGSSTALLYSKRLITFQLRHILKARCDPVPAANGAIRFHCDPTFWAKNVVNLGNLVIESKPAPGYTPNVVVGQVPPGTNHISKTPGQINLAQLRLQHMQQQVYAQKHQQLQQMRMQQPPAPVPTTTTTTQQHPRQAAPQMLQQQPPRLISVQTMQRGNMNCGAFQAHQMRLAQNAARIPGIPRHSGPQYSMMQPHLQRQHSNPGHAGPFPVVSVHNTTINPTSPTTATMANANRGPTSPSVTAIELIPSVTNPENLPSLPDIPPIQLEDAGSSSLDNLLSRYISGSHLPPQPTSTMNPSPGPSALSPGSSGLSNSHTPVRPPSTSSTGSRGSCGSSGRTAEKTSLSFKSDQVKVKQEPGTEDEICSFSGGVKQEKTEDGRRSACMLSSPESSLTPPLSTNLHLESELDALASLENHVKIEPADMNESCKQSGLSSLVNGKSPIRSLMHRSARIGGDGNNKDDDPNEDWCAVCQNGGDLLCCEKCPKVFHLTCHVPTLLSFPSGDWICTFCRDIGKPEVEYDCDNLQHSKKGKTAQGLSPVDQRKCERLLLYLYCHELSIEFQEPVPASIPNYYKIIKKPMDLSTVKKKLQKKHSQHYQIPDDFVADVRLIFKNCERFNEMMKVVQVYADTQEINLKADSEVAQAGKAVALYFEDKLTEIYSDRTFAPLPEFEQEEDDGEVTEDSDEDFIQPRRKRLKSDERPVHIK
UniProt Q8WW01: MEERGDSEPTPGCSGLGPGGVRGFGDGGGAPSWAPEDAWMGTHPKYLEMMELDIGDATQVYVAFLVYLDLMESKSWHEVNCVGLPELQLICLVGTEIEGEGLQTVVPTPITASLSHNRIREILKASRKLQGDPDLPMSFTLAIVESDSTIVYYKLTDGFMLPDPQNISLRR
UniProt P20333, whole entry, looked up: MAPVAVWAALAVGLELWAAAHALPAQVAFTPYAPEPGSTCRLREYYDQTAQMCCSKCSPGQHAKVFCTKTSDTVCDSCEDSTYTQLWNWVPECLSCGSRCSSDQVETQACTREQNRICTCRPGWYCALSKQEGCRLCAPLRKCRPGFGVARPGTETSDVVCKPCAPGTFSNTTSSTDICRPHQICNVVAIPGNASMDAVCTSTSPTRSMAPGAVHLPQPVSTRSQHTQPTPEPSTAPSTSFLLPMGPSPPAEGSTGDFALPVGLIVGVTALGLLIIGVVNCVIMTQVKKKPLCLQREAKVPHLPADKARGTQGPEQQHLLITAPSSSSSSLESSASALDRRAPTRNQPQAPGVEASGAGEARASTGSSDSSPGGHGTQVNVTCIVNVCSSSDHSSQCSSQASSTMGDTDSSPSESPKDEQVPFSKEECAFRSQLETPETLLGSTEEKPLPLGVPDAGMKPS
UniProt Q9Y296, whole entry, looked up: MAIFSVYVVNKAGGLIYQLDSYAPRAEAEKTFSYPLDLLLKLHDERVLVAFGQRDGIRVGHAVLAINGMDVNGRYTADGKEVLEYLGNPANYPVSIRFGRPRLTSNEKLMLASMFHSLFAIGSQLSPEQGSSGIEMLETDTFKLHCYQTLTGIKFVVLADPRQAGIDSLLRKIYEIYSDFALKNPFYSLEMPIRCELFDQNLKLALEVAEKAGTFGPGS
UniProt P06753, whole entry, looked up: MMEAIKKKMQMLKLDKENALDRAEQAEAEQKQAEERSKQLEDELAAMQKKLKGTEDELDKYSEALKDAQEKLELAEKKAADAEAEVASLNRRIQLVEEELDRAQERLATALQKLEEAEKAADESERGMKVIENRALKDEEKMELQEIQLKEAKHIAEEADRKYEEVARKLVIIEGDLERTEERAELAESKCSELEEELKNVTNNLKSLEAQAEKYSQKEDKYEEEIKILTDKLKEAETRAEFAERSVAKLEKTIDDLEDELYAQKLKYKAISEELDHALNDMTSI
UniProt Q12931: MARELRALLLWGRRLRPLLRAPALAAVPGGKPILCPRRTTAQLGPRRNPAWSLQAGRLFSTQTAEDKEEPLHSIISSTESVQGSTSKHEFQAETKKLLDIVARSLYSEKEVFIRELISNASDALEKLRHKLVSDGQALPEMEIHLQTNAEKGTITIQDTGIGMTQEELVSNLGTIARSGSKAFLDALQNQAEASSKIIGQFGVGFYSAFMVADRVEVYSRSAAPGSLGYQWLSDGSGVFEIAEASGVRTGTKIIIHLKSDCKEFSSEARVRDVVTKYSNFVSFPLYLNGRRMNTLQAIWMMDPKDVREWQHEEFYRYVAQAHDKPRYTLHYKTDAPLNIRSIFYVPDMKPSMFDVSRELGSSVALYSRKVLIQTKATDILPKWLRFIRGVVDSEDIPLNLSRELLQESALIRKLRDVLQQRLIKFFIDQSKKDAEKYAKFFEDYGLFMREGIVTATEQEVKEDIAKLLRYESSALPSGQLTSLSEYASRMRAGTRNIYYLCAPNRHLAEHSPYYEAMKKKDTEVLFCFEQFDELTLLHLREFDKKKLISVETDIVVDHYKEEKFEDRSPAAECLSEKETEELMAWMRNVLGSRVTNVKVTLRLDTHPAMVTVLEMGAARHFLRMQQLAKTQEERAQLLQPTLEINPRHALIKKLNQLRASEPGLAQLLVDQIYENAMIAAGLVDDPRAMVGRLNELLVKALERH
UniProt O14657: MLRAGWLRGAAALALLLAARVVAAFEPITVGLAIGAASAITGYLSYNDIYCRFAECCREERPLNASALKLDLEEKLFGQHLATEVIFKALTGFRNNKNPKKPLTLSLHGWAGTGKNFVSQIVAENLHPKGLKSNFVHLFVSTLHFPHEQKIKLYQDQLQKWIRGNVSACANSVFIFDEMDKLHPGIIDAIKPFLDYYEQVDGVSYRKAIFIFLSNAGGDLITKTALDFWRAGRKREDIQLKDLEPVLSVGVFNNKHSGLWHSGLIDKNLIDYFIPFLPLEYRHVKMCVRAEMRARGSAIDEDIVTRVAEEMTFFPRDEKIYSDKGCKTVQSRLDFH

Columns and labels:
Test in all cases: log2 fold change, soluble protein after heating vs DMSO (PISA); higher = thermal stabilisation; K562 cells, 10 uM, 30 min; active = over 0.2 and 3.5 SD of the protein, either way, in both replicates (recomputed)
[1] = compound: CC[C@@H]1C(=O)N(C)c2cnc(Nc3ccc(C(=O)NC4CCN(C)CC4)cc3OC)nc2N1C1CCCC1
In short: (§1)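 For each measurement, 10 μM compound was applied for 30 min to K562 cells at 2×10^6 cells/mL. Aliquots were heated for 3 min across 48°C-58°C, pooled, and extracted in PBS with 0.5% NP-40 at 4°C; the supernatant after 21,000xg for 90 min was soluble protein. This was quantified by TMTpro 16plex LC-MS/MS with channel sums equalised, and thermal stability was reported relative to control samples from duplicates, on a log2 fold-change scale.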

volasertib = compound: CC[C@@H]1C(=O)N(C)c2cnc(Nc3ccc(C(=O)N[C@H]4CC[C@H](N5CCN(CC6CC6)CC5)CC4)cc3OC)nc2N1C(C)C [volasertib]
In short: as §1

[2] = compound: CC[C@H](C)N1C=C(C2=C(C=C(C=C21)C3=CN=C(C=C3)N4CCNCC4)C(=O)NCC5=C(C=C(NC5=O)C)C)C
In short: as §1

epoxomicin = compound: CC[C@H](C)[C@@H](C(=O)N[C@@H]([C@@H](C)O)C(=O)N[C@@H](CC(C)C)C(=O)[C@]1(CO1)C)NC(=O)[C@H]([C@@H](C)CC)N(C)C(=O)C [epoxomicin]
In short: as §1

[3] = compound: CCn1c(C(=O)N(C2CC2)C2CC2)cc2c3c(ncn3C)c(Nc3cc(C)n(C)n3)nc21
In short: as §1

[4] = compound: CCn1cc(-c2ccnc3[nH]c(-c4cccc(CN(C)C)c4)cc23)c(-c2ccc(NC(=O)N(C)C)cc2)n1
In short: as §1

[5] = compound: CN(C)CC(=O)Nc1ccc2[nH]c(=O)c3ccccc3c2c1
In short: as §1

rosiglitazone = compound: CN(CCOC1=CC=C(C=C1)C[C@H]2C(=O)NC(=O)S2)C3=CC=CC=N3 (racemic) [rosiglitazone]
In short: as §1

[6] = compound: CN1C2=C(C3=C1C(=O)N(N=C3)CC4=CC(=CC=C4)N)SC(=C2)S(=O)C
In short: as §1

[7] = compound: CN1CCC(CNc2ccc3ncc(-c4cccc(OC(F)(F)F)c4)n3n2)CC1
In short: as §1

Measured: log2 fold change

TRAPPC12 (UniProt Q8WVT3)
inactive: [1] -0.03 | volasertib -0.162 | [2] 0.108 | epoxomicin 0.054 | [3] -0.062 | [4] 0.002 | [5] 0.006 | rosiglitazone 0.018 | [6] 0.023 | [7] -0.008

TPP2 (UniProt P29144)
inactive: [1] 0.072 | volasertib 0.334 | [2] 0.028 | epoxomicin -0.166 | [3] -0.01 | [4] 0.057 | [5] -0.069 | rosiglitazone -0.043 | [6] 0.131 | [7] 0.093

TOMM70 (UniProt O94826)
inactive: [1] -0.057 | volasertib -0.102 | [2] 0.057 | epoxomicin 0.023 | [3] -0.018 | [4] -0.029 | [5] 0.004 | rosiglitazone 0.018 | [6] -0.027 | [7] -0.017

TRMT11 (UniProt Q7Z4G4)
inactive: [1] 0 | volasertib -0.039 | [2] 0.035 | epoxomicin -0.009 | [3] 0.029 | [4] -0.044 | [5] 0.004 | rosiglitazone -0.036 | [6] -0.09 | [7] 0.024

TPM1 (UniProt H7BYY1)
inactive: [1] 0.013 | volasertib 0.067 | [2] -0.055 | epoxomicin 0.041 | [3] 0.028 | [4] 0.036 | [5] 0.004 | rosiglitazone -0.03 | [6] 0.017 | [7] 0.042

TOP1 (UniProt P11387)
inactive: [1] -0.03 | volasertib 0.022 | [2] 0.284 | epoxomicin -0.049 | [3] -0.124 | [4] 0.361 | [5] 0.046 | rosiglitazone -0.216 | [6] 0.277 | [7] 0.2

TRMT6 (UniProt Q9UJA5)
inactive: [1] 0.13 | volasertib 0.225 | [2] -0.014 | epoxomicin -0.107 | [3] 0.059 | [4] 0.098 | [5] -0.085 | rosiglitazone -0.106 | [6] 0.202 | [7] -0.053

TSC22D1 (UniProt Q15714)
inactive: [1] 0.046 | volasertib -0.015 | [2] 0.008 | epoxomicin 0.083 | [3] -0.035 | [4] -0.13 | [5] -0.026 | rosiglitazone -0.009 | [6] -0.079 | [7] 0.035

TRIP11 (UniProt Q15643)
inactive: [1] 0.052 | volasertib -0.094 | [2] -0.14 | epoxomicin -0.212 | [3] -0.081 | [4] -0.064 | [5] 0.068 | rosiglitazone -0.023 | [6] 0.276 | [7] -0.196

TRMT61B (UniProt Q9BVS5)
inactive: [1] 0.154 | volasertib 0.234 | [2] -0.03 | epoxomicin -0.056 | [3] 0.006 | [4] 0.059 | [5] -0.128 | rosiglitazone -0.012 | [6] 0.026 | [7] 0.104

TOP3B (UniProt O95985)
inactive: [1] 0.08 | volasertib 0.133 | [2] 0.024 | epoxomicin -0.135 | [3] 0 | [4] 0.016 | [5] -0.031 | rosiglitazone -0.04 | [6] 0.184 | [7] 0.09

Random excerpt: 2 records from the list
TOP1 (UniProt P11387)
inactive: [1] -0.03 | volasertib 0.022 | [2] 0.284 | epoxomicin -0.049 | [3] -0.124 | [4] 0.361 | [5] 0.046 | rosiglitazone -0.216 | [6] 0.277 | [7] 0.2

TPM1 (UniProt H7BYY1)
inactive: [1] 0.013 | volasertib 0.067 | [2] -0.055 | epoxomicin 0.041 | [3] 0.028 | [4] 0.036 | [5] 0.004 | rosiglitazone -0.03 | [6] 0.017 | [7] 0.042

Next results follow:

TRUB1 (UniProt Q8WWH5)
inactive: [1] -0.034 | volasertib -0.147 | [2] 0.066 | epoxomicin 0.014 | [3] -0.016 | [4] -0.022 | [5] 0.074 | rosiglitazone 0.011 | [6] -0.016 | [7] -0.075

TRAF4 (UniProt Q9BUZ4)
inactive: [1] 0.021 | volasertib 0.032 | [2] -0.011 | epoxomicin -0.001 | [3] -0.019 | [4] 0.006 | [5] 0.013 | rosiglitazone 0.031 | [6] 0.073 | [7] -0.012

TRIM11 (UniProt Q96F44)
inactive: [1] -0.051 | volasertib -0.074 | [2] 0.052 | epoxomicin 0.103 | [3] -0.017 | [4] 0.082 | [5] 0.093 | rosiglitazone 0.041 | [6] -0.03 | [7] -0.089

TPD52L1 (UniProt Q16890)
inactive: [1] 0.04 | volasertib -0.022 | [2] -0.012 | epoxomicin 0.024 | [3] 0.04 | [4] -0.001 | [5] 0.03 | rosiglitazone 0.035 | [6] -0.014 | [7] 0.002

TRIM33 (UniProt Q9UPN9)
inactive: [1] -0.127 | volasertib -0.292 | [2] -0.122 | epoxomicin 0.101 | [3] -0.148 | [4] -0.136 | [5] 0.162 | rosiglitazone 0.236 | [6] 0.033 | [7] -0.04

TSEN15 (UniProt Q8WW01)
inactive: [1] 0.038 | volasertib 0.006 | [2] -0.034 | epoxomicin 0.009 | [3] -0.011 | [4] 0.013 | [5] 0.033 | rosiglitazone 0.04 | [6] -0.046 | [7] -0.053

TPI1 (UniProt P60174)
inactive: [1] 0.01 | volasertib 0.048 | [2] -0.028 | epoxomicin 0.012 | [3] 0.004 | [4] 0 | [5] -0.02 | rosiglitazone 0.009 | [6] -0.061 | [7] -0.072

TNKS1BP1 (UniProt Q9C0C2)
inactive: [1] 0.028 | volasertib 0.125 | [2] -0.058 | epoxomicin -0.018 | [3] 0.011 | [4] 0.025 | [5] -0.016 | rosiglitazone -0.015 | [6] -0.018 | [7] 0.013

TNFRSF1B (UniProt P20333)
inactive: [1] 0.061 | volasertib 0.109 | [2] 0.02 | epoxomicin -0.042 | [3] 0.019 | [4] -0.052 | [5] -0.15 | rosiglitazone -0.016 | [6] -0.02 | [7] -0.035

TRAPPC4 (UniProt Q9Y296)
inactive: [1] 0.015 | volasertib -0.046 | [2] 0.02 | epoxomicin 0.076 | [3] 0.017 | [4] 0.025 | [5] -0.003 | rosiglitazone 0.035 | [6] -0.022 | [7] -0.059

TPM3 isoform 4 (UniProt P06753)
inactive: [1] 0.055 | volasertib 0.08 | [2] 0.008 | epoxomicin 0.06 | [3] 0.021 | [4] 0.031 | [5] -0.068 | rosiglitazone 0.02 | [6] 0.024 | [7] -0.087

TOR1A (UniProt O14656)
inactive: [1] 0.067 | volasertib 0.008 | [2] -0.03 | epoxomicin 0.01 | [3] 0.015 | [4] 0.025 | [5] -0.014 | rosiglitazone 0.007 | [6] -0.053 | [7] 0.039

TRMT1 (UniProt Q9NXH9)
inactive: [1] 0.036 | volasertib -0.033 | [2] -0.064 | epoxomicin -0.019 | [3] 0.005 | [4] 0.011 | [5] -0.012 | rosiglitazone 0 | [6] -0.023 | [7] -0.025

TSC22D4 (UniProt Q9Y3Q8)
inactive: [1] -0.041 | volasertib -0.079 | [2] 0.034 | epoxomicin -0.01 | [3] 0.002 | [4] 0.01 | [5] -0.01 | rosiglitazone -0.003 | [6] 0 | [7] -0.032

TOP2B (UniProt Q02880)
inactive: [1] 0.181 | volasertib 0.194 | [2] 0.088 | epoxomicin -0.325 | [3] 0.078 | [4] 0.198 | [5] -0.215 | rosiglitazone -0.232 | [6] 0.383 | [7] 0.189

TRAP1 (UniProt Q12931)
inactive: [1] -0.014 | volasertib 0.074 | [2] -0.026 | epoxomicin 0.034 | [3] 0.035 | [4] 0.008 | [5] -0.021 | rosiglitazone -0.004 | [6] -0.049 | [7] 0.011

TOR1B (UniProt O14657)
inactive: [1] 0.027 | volasertib 0.014 | [2] 0.03 | epoxomicin -0.02 | [3] 0.04 | [4] 0.032 | [5] -0.039 | rosiglitazone 0.009 | [6] 0.057 | [7] 0.002

TPT1 (UniProt P13693)
inactive: [1] 0 | volasertib 0.169 | [2] 0.054 | epoxomicin 0.059 | [3] -0.008 | [4] -0.202 | [5] 0.01 | rosiglitazone 0.049 | [6] -0.103 | [7] -0.062
